No constants are given. Whether binding was seen depends on the method and setting. A result given as binding can be weak or reduced; the word gives no strength.
T1: Simplagrin (Simulium platelet aggregation inhibitor), recombinant (Simulium nigrimanum) (UniProt D1FQ14)
T1 sequence: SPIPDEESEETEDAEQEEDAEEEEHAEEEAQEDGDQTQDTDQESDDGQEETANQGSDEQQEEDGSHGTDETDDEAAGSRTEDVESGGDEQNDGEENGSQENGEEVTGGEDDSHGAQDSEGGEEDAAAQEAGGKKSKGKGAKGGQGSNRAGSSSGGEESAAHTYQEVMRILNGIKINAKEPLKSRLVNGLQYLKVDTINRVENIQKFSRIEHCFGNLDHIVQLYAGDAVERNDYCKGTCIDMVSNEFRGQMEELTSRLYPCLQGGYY


How the values were obtained:
[1] = molecular target: T1, Simplagrin (Simulium platelet aggregation inhibitor), recombinant (Simulium nigrimanum); test: SPR; initial screening: Simplagrin immobilised on a CM5 chip, analytes injected for 120 s at 20 µL/min, dissociation 400 s; HBS-P (10 mM Hepes pH 7.4, 150 mM NaCl, 0.005% P20); both purified
[2] = molecular target: Soluble human collagen type IV (human); test: ELISA; solid phase: collagens (25 µg/mL in PBS pH 7.4) coated overnight at 4°C, Simplagrin 0-3 µM in PBS-T for two hours, detected with anti-Simplagrin antibodies; both purified
[3] = molecular target: Soluble human collagen type V (human); test: as above

Molecule	binding [1]	binding [2]	binding [3]
Soluble human collagen type IV	binds		
Soluble human collagen type V	binds		
Soluble human collagen type VI	binds		
Simplagrin (Simulium platelet aggregation inhibitor), recombinant (natural protein, Simulium nigrimanum, UniProt D1FQ14 21-286, looked up, Simplagrin (cluster Sim-50), salivary gland protein of Simulium nigrimanum; precursor of 286 aa with a predicted signal peptide of 20 aa; the construct holds the mature protein and a 6X-His tag before the stop codon; Synthetic codon optimised gene in the VR2001 TOPO vector; also called Sim-50; recombinant Simplagrin; source: FreeStyle293 F (HEK293) cells, transfected, secreted; purified (Ni2+ …)) SPIPDEESEETEDAEQEEDAEEEEHAEEEAQEDGDQTQDTDQESDDGQEETANQGSDEQQEEDGSHGTDETDDEAAGSRTEDVESGGDEQNDGEENGSQENGEEVTGGEDDSHGAQDSEGGEEDAAAQEAGGKKSKGKGAKGGQGSNRAGSSSGGEESAAHTYQEVMRILNGIKINAKEPLKSRLVNGLQYLKVDTINRVENIQKFSRIEHCFGNLDHIVQLYAGDAVERNDYCKGTCIDMVSNEFRGQMEELTSRLYPCLQGGYY		binds	binds

From PMC4055580, “Simplagrin, a Platelet Aggregation Inhibitor from Simulium nigrimanum Salivary Glands Specifically Binds to the Von Willebrand Factor Receptor in Collagen and Inhibits Carotid Thrombus Formation In Vivo” (PLoS Neglected Tropical Diseases, 2014)
